Test results reported in PubChem BioAssay AID1487 (National Center for Advancing Translational Sciences (NCATS), 2009).
The other results are listed elsewhere or left out. Shown are side measurements of this screen, not its main read-out; they come without a call. Most of these compounds were active or inconclusive in the main read-out, so they are no random draw. The note in brackets gives the kind of curve behind each potency; many fits are weak.

Assay: qHTS Assay for Modulators of Lamin A Splicing
Details: HeLa LMNA splicing GFP/RFP minigene ratio, 48 h
Procedure, shortened: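 Read-out is the ratio of GFP to DsRed2 object intensity, acquired by 488 nm laser-scanning cytometry on HeLa lamin A-EGFP minigene reporter cells. Compound incubation 48 hrs at 37 °C in Opti-MEM with 2% FBS; DMSO 0.5% final.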

[1] = measured here: GFP splicing reporter channel
[2] = measured here: RFP viability control channel

Row | SMILES | AC50 [1] | AC50 [2]
1 | CCOC(=O)c1c(NC(=O)C(C)S(=O)(=O)c2cn(CC)c3ccccc23)sc2c1CCCC2 (stereo unspecified) | 25.1 µM [rising, single point] | –
2 | O=C(/C=C/c1ccc([N+](=O)[O-])cc1)NNC(=O)C1CC1 | – | 0.00355 µM [falling, full curve, poor fit]
3 | O=c1[nH]c(=O)c2nc(-c3ccc(Cl)cc3)cnc2[nH]1 | 0.1 µM [rising, full curve, poor fit] | –
4 | CN(C)c1ccc(C(CNC(=O)COc2ccccc2)N2CCOCC2)cc1 (stereo unspecified) | 7.94 µM [falling, partial curve, poor fit] | –
5 | COc1ccccc1C(=O)NCC(=O)N/N=C/c1cc(Br)ccc1OC(=O)/C=C\c1ccco1 | 14.1 µM [rising, partial curve, poor fit] | 12.6 µM [rising, partial curve]
6 | CSc1ccccc1NC(=O)C1C2CCC(C2)C1C(=O)O (stereo unspecified) | – | 0.251 µM [falling, full curve, poor fit]
7 | Cc1ccc(S(=O)(=O)NCc2ccco2)c(C)c1C | – | 12.6 µM [rising, partial curve, poor fit]
8 | CCOc1ccc(Oc2nc(N(CC)CC)nc(N3CCOCC3)n2)nn1 | 20 µM [falling, single point] | –
9 | O=C(c1ccc2c(c1)OCO2)C1CCCN(C(=O)c2cnn(Cc3ccccc3)c2)C1 (stereo unspecified) | – | 0.891 µM [falling, partial curve]
10 | CCCCCCCCCCCCCCCCCCO | 35.5 µM [falling, single point] | 0.00251 µM [falling, full curve, poor fit]
11 | O=C(NC(=S)Nc1ccc(CN2CCOCC2)cc1)c1cccc([N+](=O)[O-])c1 | 4.47 µM [falling, full curve, poor fit] | –
12 | O=C(CSc1nc2ccccc2n1CC(=O)Nc1ccc(F)cc1F)Nc1ccc(F)cc1 | – | 7.94 µM [falling, partial curve, poor fit]
13 | CCn1c(C)cs/c1=N\C(=S)Nc1ccccc1C | – | 10 µM [rising, partial curve]
14 | O=C(CCc1ccc(S(=O)(=O)NCc2ccccc2)cc1)N1CCN(Cc2ccc3c(c2)OCO3)CC1 | 14.1 µM [rising, partial curve] | 14.1 µM [rising, partial curve]
15 | C=CCOc1nc2c(c(=O)n(C)c(=O)n2C)n1Cc1ccccc1Cl | – | 11.2 µM [rising, partial curve]
16 | COc1cccc(Cn2c(=O)c(-c3cccc(C#N)c3)nc3cnc(OC)nc32)c1 | 11.2 µM [falling, partial curve] | –
17 | COc1cc(C=O)ccc1OCCCOc1ccccc1[N+](=O)[O-] | – | 2.82 µM [rising, full curve, poor fit]
18 | C=CCC1C=CCC(CC=C)N1C(=O)c1ccccc1[N+](=O)[O-] (stereo unspecified) | 14.1 µM [rising, partial curve] | 15.8 µM [rising, partial curve]
19 | Cc1nc(-c2ccc(F)cc2)sc1CCNC(=O)c1ccccc1 | – | 0.708 µM [falling, full curve, poor fit]

Row | SMILES | AC50 [1] | AC50 [2]
20 | O=C(c1csc2ccccc12)N1CCCCCC1 | 14.1 µM [rising, single point] | 12.6 µM [rising, single point]
21 | CC1CC(C)CN(C(=S)Nc2ccc3nc4n(c(=O)c3c2)CCCCC4)C1 (stereo unspecified) | – | 15.8 µM [rising, single point]
22 | O=C(O)c1ccc(COc2ccc3ccccc3c2/C=C2/NC(=O)N(c3ccccc3)C2=O)cc1 | 35.5 µM [rising, single point] | –
23 | CCOC(=O)c1cnc(-n2nc(C)cc2C)nc1NCc1ccccc1 | 7.08 µM [rising, partial curve] | 7.08 µM [rising, full curve]
24 | N=c1n(Cc2ccccc2)c2ccccc2n1CC(O)c1ccccc1 (stereo unspecified) | 12.6 µM [rising, single point] | 14.1 µM [rising, partial curve, poor fit]
25 | O=C(O)COc1ccc2oc3ccccc3c2c1 | 0.0141 µM [falling, full curve, poor fit] | 0.0126 µM [falling, full curve, poor fit]
26 | CCOC(=O)c1c(C)oc2nc(C)nc(N3CCN(c4ccc(C)cc4C)CC3)c12 | – | 1 µM [falling, full curve, poor fit]
27 | Cc1nnc(C)n1N1C(=O)c2cccc3cccc(c23)C1=O | 3.55 µM [falling, full curve, poor fit] | 5.01 µM [falling, full curve, poor fit]
28 | COc1ccc(C2=NOC(C(=O)NCc3ccc(F)cc3)C2)cc1OC (stereo unspecified) | – | 7.94 µM [rising, partial curve]
29 | CC1(C)O[C@@H]2C[C@H]3[C@@H]4CCC5=CC(=O)C=C[C@]5(C)[C@@]4(F)[C@@H](O)C[C@]3(C)[C@]2(C(=O)CO)O1 | – | 10 µM [rising, single point]
30 | CCN1c2ccccc2NC2N=C(OC)C(c3ccccc3)C21 (stereo unspecified) | 35.5 µM [falling, single point] | 35.5 µM [falling, single point]
31 | COc1cccc(-c2nccc(NCc3cccnc3)n2)c1 | 11.2 µM [falling, partial curve] | 14.1 µM [falling, partial curve]
32 | C[C@@H]([C@H](O)c1ccc(O)cc1)N1CCC(Cc2ccccc2)CC1 | 1.12 µM [falling, partial curve, poor fit] | –
33 | COc1ccc(CC(=O)Nc2cccc(-c3nnc(-c4ccc(C)cc4)o3)c2)cc1OC | 3.98 µM [rising, single point] | 6.31 µM [rising, single point]
34 | COc1cccc(N(C(=O)CCl)C(C(=O)NCCc2ccccc2)c2cccs2)c1 (stereo unspecified) | 25.1 µM [falling, single point] | 35.5 µM [falling, single point]
35 | Cc1ccc(C)n1-c1ncc(Br)cn1 | 0.0398 µM [falling, full curve, poor fit] | –
36 | Cc1cccc(/C=c2\s/c(=C\C(=O)C(C)(C)C)[nH]c2=O)c1 | 31.6 µM [rising, single point] | –
37 | COC(=O)CC(c1ccc(C(C)C)cc1)n1cccc1 (stereo unspecified) | 0.0126 µM [rising, full curve, poor fit] | –
38 | Cc1ccc(Oc2cc(C)nc(-c3ccccc3O)n2)cc1 | 15.8 µM [rising, single point] | 14.1 µM [rising, single point]

Structural class: those above with an NH in an aromatic ring.
Row | SMILES | AC50 [1] | AC50 [2]
3 | O=c1[nH]c(=O)c2nc(-c3ccc(Cl)cc3)cnc2[nH]1 | 0.1 µM [rising, full curve, poor fit] | –
36 | Cc1cccc(/C=c2\s/c(=C\C(=O)C(C)(C)C)[nH]c2=O)c1 | 31.6 µM [rising, single point] | –

Following part.

Row | SMILES | AC50 [1] | AC50 [2]
39 | CCCCC(=O)N(Cc1ccc(-c2ccccc2-c2nn[nH]n2)cc1)C(C(=O)O)C(C)C (stereo unspecified) | 0.126 µM [falling, single point] | –
40 | O=C1CC(c2ccccc2)CN1C(=O)c1cccc([N+](=O)[O-])c1 (stereo unspecified) | – | 0.00447 µM [falling, full curve, poor fit]
41 | COc1cccc(NC(=S)N(CCCN2CCOCC2)Cc2cn(C)c3ccccc23)c1 | – | 22.4 µM [rising, single point]
42 | Cc1nn(Cc2ccccc2)c(C)c1NC(=O)CSc1n[nH]c(C)c1[N+](=O)[O-] | 0.178 µM [falling, full curve, poor fit] | –
43 | O=c1[nH]nc(SCc2ccccc2)c(=O)[nH]1 | – | 12.6 µM [rising, partial curve]
44 | CC(=O)c1c(C)cc(C)c(CSc2nc(C)cc(=O)[nH]2)c1C | – | 31.6 µM [rising, single point]
45 | Fc1ccccc1-c1[nH]ncc1-c1nnnn1-c1ccccc1 | 3.55 µM [rising, single point] | 6.31 µM [rising, single point]
46 | CCOc1ccc(NC(=O)CNc2ccc(C)cc2Cl)cc1 | – | 35.5 µM [rising, single point]
47 | O=C(NCc1ccco1)c1ccc(COc2cc(Cl)ccc2Cl)cc1 | – | 0.0126 µM [rising, full curve, poor fit]
48 | O=C1OCCC1Sc1nc2ccccc2s1 (stereo unspecified) | 35.5 µM [falling, partial curve, poor fit] | 35.5 µM [falling, single point]
49 | CCc1ccc(-n2cnc3cc(C(=O)NCc4ccc(C)cc4)ccc32)cc1 | 6.31 µM [falling, partial curve] | –
50 | COc1ccc2c(OC)c3ccoc3nc2c1OC | 0.000891 µM [falling, full curve, poor fit] | 3.16 µM [falling, partial curve, poor fit]
51 | CSc1ccc(CN(C)CC(=O)Nc2cccc(Br)c2)cc1 | – | 11.2 µM [rising, single point]
52 | CC(C)c1ccc(O)c(NC(=S)NC(=O)CCc2ccccc2)c1 | 12.6 µM [rising, partial curve, poor fit] | –
53 | CCOC(=O)c1c(C)[nH]c(CCC(=O)NCc2ccc(CC)cc2)c1C | 0.126 µM [rising, full curve, poor fit] | 0.0251 µM [rising, full curve, poor fit]
54 | CCCOc1ccc(-c2cc(C(=O)NCC3CCCO3)c3ccccc3n2)cc1 (stereo unspecified) | 35.5 µM [rising, single point] | –
55 | Cc1ccn2cc(-c3ccc(NS(=O)(=O)c4ccccc4)cc3)nc2c1 | 15.8 µM [rising, partial curve] | 28.2 µM [rising, single point]
56 | CNC(=O)CSc1nnc(C(C)C)n1C | 0.00891 µM [rising, full curve, poor fit] | 0.0126 µM [rising, full curve, poor fit]
